These are yes or no findings as the source states them, for the method shown. Binding seen in cells or lysates may run through a third protein. Some entries that bind do so weakly or less than the wild type. For some assays here: Where a sequence is shown, tags or fusion partners need not be part of it.
What was measured:
[1] = molecular target: T1, mitochondrial anti-viral-signaling protein (MAVS), endogenous in HL-1 cardiomyocytes (mouse (endogenous in HL-1)) (UniProt Q8VCF0); experiment: co-IP; NLRP3 and MAVS in HL-1 cardiomyocytes in the presence or absence of si-PGAM5 under MCM + H/R treatment
T1 sequence: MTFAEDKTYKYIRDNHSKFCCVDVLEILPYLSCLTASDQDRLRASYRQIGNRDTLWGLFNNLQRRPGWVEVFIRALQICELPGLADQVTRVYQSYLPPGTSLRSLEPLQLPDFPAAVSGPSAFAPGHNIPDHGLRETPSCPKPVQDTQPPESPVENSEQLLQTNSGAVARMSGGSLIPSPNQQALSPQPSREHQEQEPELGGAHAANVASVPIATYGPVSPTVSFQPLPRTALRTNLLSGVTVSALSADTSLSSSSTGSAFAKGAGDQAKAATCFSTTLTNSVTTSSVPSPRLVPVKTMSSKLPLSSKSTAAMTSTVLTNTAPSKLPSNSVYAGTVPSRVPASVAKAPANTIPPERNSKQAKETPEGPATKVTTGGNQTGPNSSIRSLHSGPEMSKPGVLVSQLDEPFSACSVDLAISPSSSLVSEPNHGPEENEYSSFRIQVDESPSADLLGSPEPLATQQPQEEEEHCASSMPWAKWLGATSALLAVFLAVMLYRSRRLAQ

The chains behind the UniProt entries cited, without tags or fusion partners.
UniProt Q8R4B8: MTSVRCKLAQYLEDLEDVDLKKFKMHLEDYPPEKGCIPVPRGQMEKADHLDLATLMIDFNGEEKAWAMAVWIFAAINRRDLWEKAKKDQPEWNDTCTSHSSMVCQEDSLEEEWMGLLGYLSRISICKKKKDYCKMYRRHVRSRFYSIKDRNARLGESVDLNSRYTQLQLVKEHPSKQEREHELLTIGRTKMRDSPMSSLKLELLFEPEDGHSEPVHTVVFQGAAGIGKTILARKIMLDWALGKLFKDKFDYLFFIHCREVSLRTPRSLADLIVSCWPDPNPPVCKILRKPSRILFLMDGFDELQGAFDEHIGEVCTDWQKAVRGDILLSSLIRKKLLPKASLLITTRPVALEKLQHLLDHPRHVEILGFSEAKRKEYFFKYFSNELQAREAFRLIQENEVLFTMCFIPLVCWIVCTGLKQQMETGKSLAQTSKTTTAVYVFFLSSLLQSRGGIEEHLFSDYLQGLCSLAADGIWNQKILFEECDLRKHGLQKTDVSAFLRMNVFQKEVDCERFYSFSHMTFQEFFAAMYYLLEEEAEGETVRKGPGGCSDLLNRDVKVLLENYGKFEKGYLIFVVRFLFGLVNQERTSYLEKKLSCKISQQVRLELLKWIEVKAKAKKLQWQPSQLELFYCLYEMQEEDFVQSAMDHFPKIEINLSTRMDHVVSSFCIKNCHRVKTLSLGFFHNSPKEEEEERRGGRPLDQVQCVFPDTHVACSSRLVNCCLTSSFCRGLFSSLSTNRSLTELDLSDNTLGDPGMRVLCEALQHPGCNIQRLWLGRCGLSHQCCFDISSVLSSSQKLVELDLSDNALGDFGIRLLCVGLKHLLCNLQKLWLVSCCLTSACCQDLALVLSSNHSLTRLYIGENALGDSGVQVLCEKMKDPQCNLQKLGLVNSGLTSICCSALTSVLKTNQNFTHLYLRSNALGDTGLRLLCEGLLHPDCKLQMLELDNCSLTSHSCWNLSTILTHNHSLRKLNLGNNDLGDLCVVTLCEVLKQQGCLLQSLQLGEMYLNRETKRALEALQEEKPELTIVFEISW
UniProt Q7Z434: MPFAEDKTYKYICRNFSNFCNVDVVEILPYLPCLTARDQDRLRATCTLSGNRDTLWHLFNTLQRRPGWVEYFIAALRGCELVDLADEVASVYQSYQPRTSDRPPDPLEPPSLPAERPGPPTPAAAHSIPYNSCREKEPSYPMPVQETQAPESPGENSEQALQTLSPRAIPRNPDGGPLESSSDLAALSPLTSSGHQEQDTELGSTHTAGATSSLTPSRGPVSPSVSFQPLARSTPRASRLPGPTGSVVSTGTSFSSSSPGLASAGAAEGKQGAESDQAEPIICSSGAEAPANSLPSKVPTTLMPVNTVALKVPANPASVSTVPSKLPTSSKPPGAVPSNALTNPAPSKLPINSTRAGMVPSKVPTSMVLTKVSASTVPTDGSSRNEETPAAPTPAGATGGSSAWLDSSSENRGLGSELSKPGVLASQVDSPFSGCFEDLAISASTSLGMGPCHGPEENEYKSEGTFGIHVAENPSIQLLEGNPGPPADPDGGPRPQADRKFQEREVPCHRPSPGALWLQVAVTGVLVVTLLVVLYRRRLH

[2] = molecular target: T2, HA-PGAM5 in HL-1 cardiomyocytes (human) (UniProt Q96HS1); experiment: co-IP; HL-1 cardiomyocytes expressing Flag-tagged MAVS and HA-PGAM5; HA-PGAM5 immune complexes blotted for Flag-MAVS
T2 sequence: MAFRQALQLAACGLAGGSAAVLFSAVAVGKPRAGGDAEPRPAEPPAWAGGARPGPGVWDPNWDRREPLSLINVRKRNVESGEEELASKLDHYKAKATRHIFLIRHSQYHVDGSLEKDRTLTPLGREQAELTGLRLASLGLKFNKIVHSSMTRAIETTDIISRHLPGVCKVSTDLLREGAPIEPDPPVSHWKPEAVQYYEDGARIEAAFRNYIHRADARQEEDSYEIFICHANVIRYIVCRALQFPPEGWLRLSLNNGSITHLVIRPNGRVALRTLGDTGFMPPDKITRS

[3] = molecular target: T3, MAVS, endogenous in NMCMs (mouse (endogenous in NMCMs)) (UniProt Q8VCF0); experiment: co-IP; NLRP3 and MAVS in NMCMs with or without PGAM5 knockdown under MCM + H/R treatment
T3 sequence: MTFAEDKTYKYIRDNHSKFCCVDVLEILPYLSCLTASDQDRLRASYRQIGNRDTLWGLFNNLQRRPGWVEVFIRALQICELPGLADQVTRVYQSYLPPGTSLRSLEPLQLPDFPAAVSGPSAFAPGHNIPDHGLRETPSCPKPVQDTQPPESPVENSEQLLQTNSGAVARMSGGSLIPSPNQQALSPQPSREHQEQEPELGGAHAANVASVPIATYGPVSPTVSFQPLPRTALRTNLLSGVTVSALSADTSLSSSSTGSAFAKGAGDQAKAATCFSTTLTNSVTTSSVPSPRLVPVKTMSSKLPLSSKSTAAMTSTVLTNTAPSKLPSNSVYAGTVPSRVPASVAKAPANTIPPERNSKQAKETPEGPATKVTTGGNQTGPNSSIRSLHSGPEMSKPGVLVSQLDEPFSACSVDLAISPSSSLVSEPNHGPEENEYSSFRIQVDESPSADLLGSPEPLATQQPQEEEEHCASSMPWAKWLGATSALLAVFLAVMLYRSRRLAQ

[4] = molecular target: T4, PGAM5, endogenous in HL-1 cardiomyocytes (mouse (endogenous in HL-1)) (UniProt Q8BX10); experiment: co-IP; endogenous PGAM5 and MAVS in HL-1 cardiomyocytes with or without MCM + H/R treatment
T4 sequence: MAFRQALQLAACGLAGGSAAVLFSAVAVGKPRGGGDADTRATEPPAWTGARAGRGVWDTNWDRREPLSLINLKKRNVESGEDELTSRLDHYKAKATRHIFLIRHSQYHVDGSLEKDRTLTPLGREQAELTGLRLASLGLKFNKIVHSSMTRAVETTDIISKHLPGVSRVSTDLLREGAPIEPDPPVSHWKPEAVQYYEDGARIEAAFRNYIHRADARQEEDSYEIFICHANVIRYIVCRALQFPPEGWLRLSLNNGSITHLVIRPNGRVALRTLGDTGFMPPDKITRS

[5] = molecular target: T5, PGAM5, endogenous (cells of Supplementary Fig. S11a not named) (UniProt Q8BX10); experiment: co-IP; endogenous proteins, IP with anti-PGAM5 or scramble IgG; cells not named
T5 sequence: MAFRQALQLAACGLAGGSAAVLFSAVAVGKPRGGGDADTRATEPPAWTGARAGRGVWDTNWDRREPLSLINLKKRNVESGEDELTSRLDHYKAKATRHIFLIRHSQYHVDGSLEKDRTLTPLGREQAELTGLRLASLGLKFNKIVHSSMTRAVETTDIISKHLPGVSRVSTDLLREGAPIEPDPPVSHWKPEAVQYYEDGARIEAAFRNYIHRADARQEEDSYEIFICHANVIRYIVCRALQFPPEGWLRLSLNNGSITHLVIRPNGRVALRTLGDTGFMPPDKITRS

[6] = molecular target: T6, PGAM5, endogenous in NMCMs (mouse (endogenous in NMCMs)) (UniProt Q8BX10); experiment: co-IP; endogenous PGAM5 and MAVS in NMCMs with or without MCM + H/R treatment
T6 sequence: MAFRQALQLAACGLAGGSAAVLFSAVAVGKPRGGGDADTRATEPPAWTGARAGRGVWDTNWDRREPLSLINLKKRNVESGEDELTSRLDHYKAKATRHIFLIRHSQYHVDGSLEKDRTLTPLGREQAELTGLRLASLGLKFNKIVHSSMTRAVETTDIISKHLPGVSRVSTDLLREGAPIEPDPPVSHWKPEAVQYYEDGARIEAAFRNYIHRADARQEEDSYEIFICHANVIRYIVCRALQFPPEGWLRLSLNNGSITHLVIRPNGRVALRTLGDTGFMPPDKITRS

[7] = molecular target: T7, HA-tagged PGAM5 in NMCMs (human) (UniProt Q96HS1); experiment: co-IP; NMCMs transfected with PGAM5-HA or control vector along with MARCH2-Flag; IP with anti-HA, blots with anti-Flag and anti-HA; NP-40 lysis buffer, protein A/G agarose, 4 °C
T7 sequence: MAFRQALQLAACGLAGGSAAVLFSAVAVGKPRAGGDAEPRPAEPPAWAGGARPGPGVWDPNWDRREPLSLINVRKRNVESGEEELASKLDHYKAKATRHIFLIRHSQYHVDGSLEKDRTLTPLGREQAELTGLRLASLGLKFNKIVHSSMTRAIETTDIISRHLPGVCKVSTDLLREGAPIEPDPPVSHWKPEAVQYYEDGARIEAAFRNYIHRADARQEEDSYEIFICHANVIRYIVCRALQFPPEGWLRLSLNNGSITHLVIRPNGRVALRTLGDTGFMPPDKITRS

[8] = molecular target: T6, PGAM5, endogenous in NMCMs (mouse (endogenous in NMCMs)); experiment: co-IP; endogenous MARCH2 and PGAM5 in NMCMs; control IgG; NP-40 lysis buffer

## NLRP3, endogenous in HL-1 cardiomyocytes (from UniProt Q8R4B8 1-1033)
[1]
  binding: binds

## Flag-tagged MAVS in HL-1 cardiomyocytes (from UniProt Q7Z434 1-540)
[2]
  binding: binds

## NLRP3, endogenous in NMCMs (from UniProt Q8R4B8 1-1033)
[3]
  binding: binds

B1: mitochondrial anti-viral-signaling protein (MAVS), endogenous in HL-1 cardiomyocytes (protein, UniProt Q8VCF0 1-503)
chain: MTFAEDKTYKYIRDNHSKFCCVDVLEILPYLSCLTASDQDRLRASYRQIGNRDTLWGLFNNLQRRPGWVEVFIRALQICELPGLADQVTRVYQSYLPPGTSLRSLEPLQLPDFPAAVSGPSAFAPGHNIPDHGLRETPSCPKPVQDTQPPESPVENSEQLLQTNSGAVARMSGGSLIPSPNQQALSPQPSREHQEQEPELGGAHAANVASVPIATYGPVSPTVSFQPLPRTALRTNLLSGVTVSALSADTSLSSSSTGSAFAKGAGDQAKAATCFSTTLTNSVTTSSVPSPRLVPVKTMSSKLPLSSKSTAAMTSTVLTNTAPSKLPSNSVYAGTVPSRVPASVAKAPANTIPPERNSKQAKETPEGPATKVTTGGNQTGPNSSIRSLHSGPEMSKPGVLVSQLDEPFSACSVDLAISPSSSLVSEPNHGPEENEYSSFRIQVDESPSADLLGSPEPLATQQPQEEEEHCASSMPWAKWLGATSALLAVFLAVMLYRSRRLAQ
[4]
  binding: binds

B2: MAVS, endogenous (cells of Supplementary Fig. S11a not named) (protein, UniProt Q8VCF0 1-503)
chain: MTFAEDKTYKYIRDNHSKFCCVDVLEILPYLSCLTASDQDRLRASYRQIGNRDTLWGLFNNLQRRPGWVEVFIRALQICELPGLADQVTRVYQSYLPPGTSLRSLEPLQLPDFPAAVSGPSAFAPGHNIPDHGLRETPSCPKPVQDTQPPESPVENSEQLLQTNSGAVARMSGGSLIPSPNQQALSPQPSREHQEQEPELGGAHAANVASVPIATYGPVSPTVSFQPLPRTALRTNLLSGVTVSALSADTSLSSSSTGSAFAKGAGDQAKAATCFSTTLTNSVTTSSVPSPRLVPVKTMSSKLPLSSKSTAAMTSTVLTNTAPSKLPSNSVYAGTVPSRVPASVAKAPANTIPPERNSKQAKETPEGPATKVTTGGNQTGPNSSIRSLHSGPEMSKPGVLVSQLDEPFSACSVDLAISPSSSLVSEPNHGPEENEYSSFRIQVDESPSADLLGSPEPLATQQPQEEEEHCASSMPWAKWLGATSALLAVFLAVMLYRSRRLAQ
[5]
  binding: binds

B3: MAVS, endogenous in NMCMs (protein, UniProt Q8VCF0 1-503)
chain: MTFAEDKTYKYIRDNHSKFCCVDVLEILPYLSCLTASDQDRLRASYRQIGNRDTLWGLFNNLQRRPGWVEVFIRALQICELPGLADQVTRVYQSYLPPGTSLRSLEPLQLPDFPAAVSGPSAFAPGHNIPDHGLRETPSCPKPVQDTQPPESPVENSEQLLQTNSGAVARMSGGSLIPSPNQQALSPQPSREHQEQEPELGGAHAANVASVPIATYGPVSPTVSFQPLPRTALRTNLLSGVTVSALSADTSLSSSSTGSAFAKGAGDQAKAATCFSTTLTNSVTTSSVPSPRLVPVKTMSSKLPLSSKSTAAMTSTVLTNTAPSKLPSNSVYAGTVPSRVPASVAKAPANTIPPERNSKQAKETPEGPATKVTTGGNQTGPNSSIRSLHSGPEMSKPGVLVSQLDEPFSACSVDLAISPSSSLVSEPNHGPEENEYSSFRIQVDESPSADLLGSPEPLATQQPQEEEEHCASSMPWAKWLGATSALLAVFLAVMLYRSRRLAQ
[6]
  binding: binds

B4: Flag-tagged MARCH2 in NMCMs (enzyme, UniProt Q9P0N8 1-246)
chain: MTTGDCCHLPGSLCDCSGSPAFSKVVEATGLGPPQYVAQVTSRDGRLLSTVIRALDTPSDGPFCRICHEGANGECLLSPCGCTGTLGAVHKSCLEKWLSSSNTSYCELCHTEFAVEKRPRPLTEWLKDPGPRTEKRTLCCDMVCFLFITPLAAISGWLCLRGAQDHLRLHSQLEAVGLIALTIALFTIYVLWTLVSFRYHCQLYSEWRKTNQKVRLKIREADSPEGPQHSPLAAGLLKKVAEETPV
[7]
  binding: binds

B5: MARCH2, endogenous in NMCMs (enzyme, UniProt Q99M02 1-246)
chain: MTTGDCCHLPGSLCDCSSSPAFSKVVEATGLGPPQYVAQVTSRDGRLLSTVIRALDSQSDCPFCRICHEGANGENLLSPCGCTGTLGAVHKSCLEKWLSSSNTSYCELCHTEFAVEKRPRPLTEWLKDPGPRTEKRTLCCDMVCFVFITPLAAISGWLCLRGAQDHLRLHSRLEAVGLIALTIALFTIYVLWTLVSFRYHCQLYSEWRKTNQKVRLKIREADGSEDPHHSLLATGLLKKVAEETPV
[8]
  binding: binds

From paper PMC10897310
